Binding data for 2 molecules are collected here from paper PMC8211105.

Test [1] addresses MxiN, BACTH fusion (S. flexneri) (UniProt Q6XVX6). Kind of test: two-hybrid; bacterial adenylate cyclase two-hybrid (BACTH) in cyaA- E. coli BTH101; T18 and T25 fused to N- or C-terminus, eight permutations; read on LB X-gal and MacConkey maltose plates, 30°C; positive if at least one permutation is positive.
For test [2], the target named is MxiK, BACTH fusion (S. flexneri) (UniProt P0A227). The description is as above.

Results are given in words; binding and its absence hold for the method and conditions named. Some results given as binding are weak or reduced against the parent protein; the word gives no strength. Where a sequence is shown, tags or fusion partners need not be part of it.

B1: MxiN, BACTH fusion (protein, UniProt Q6XVX6 1-231)
chain: MKVCNMQKGTLPVSRHHAYDGVVIKRIEKELCKTIKDRDTESKKKAICVIKDATKKAESLRIDAVCDGYQIGIQTAFEHIIDYICEWKLKQNENRRNIEDYITSLLSENLHDERIISTLLEQWLSSLRNTVTELKVVLPKCNLALRKKLELDLHKYRSDVKIILKYSEGNNYIFCSGNQVVEFSPQDVISGVKIELAEKLTKNDKKYFKELAHKKLRQIAEDLLKENPVND
As for B1, the binding entry in test [1] was “binds”.

B2: MxiK, BACTH fusion (protein, UniProt P0A227 1-175)
chain: MIRMDGIYKKYLSIIFDPAFYINRNRLNLPSELLENGVIRSEINNLIINKYDLNCDIEPLSGVTAMFVANWNLLPAVAYFIGSQESRLINHSEMVISYYGGKISKQGEAAIRSGFWHLIAWKENISVGIYERINLLFNPIALEGNYTPVERNLSRLNEGMQYAKRHFTGIQTSCL
For the molecule B2, the binding result in test [2] is given as “no binding”.
